Assay results from the supplement of paper PMC4604168 (melanoma cell lines).
The list shows a part of the results. Repeats are few or missing, and single values can be far off.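 The apoptosis fraction was the count of cleaved-PARP antibody-stained nuclei relative to all DNA-stained nuclei, imaged in 1,536-well plates. Screening doses were set so most cells survived, and baseline and induced cleaved-PARP levels vary greatly across cell lines.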

Tested on: CBRC034 (line from a melanoma biopsy)
Assay: cleaved PARP positive nuclei fraction relative to DMSO control; melanoma cells; higher = more apoptosis
Details: library dose: low library concentration; 72 h

| Structure (SMILES) | cleaved PARP positive nuclei fraction [%] |
| --- | --- |
| CC1(C)CCC(c2ccc(Cl)cc2)=C(CN2CCN(c3ccc(C(=O)NS(=O)(=O)c4ccc(N[C@H](CCN5CCOCC5)CSc5ccccc5)c(S(=O)(=O)C(F)(F)F)c4)cc3)CC2)C1 + Cc1cn(-c2cc(NC(=O)c3ccc(C)c(Nc4nccc(-c5cccnc5)n4)c3)cc(C(F)(F)F)c2)cn1 [nilotinib] (first compound 0.4 µM, partner dose 0.2 µM) | 129 |
| C[C@@H](N)c1ccc(C(=O)Nc2ccnc3[nH]ccc23)cc1 + CCCCCCCCc1ccc(CCC(N)(CO)CO)cc1 [fingolimod] (first compound 0.4 µM, partner dose 2 µM) | 54.1 |
| Cn1cnc2c(F)c(Nc3ccc(Br)cc3Cl)c(C(=O)NOCCO)cc21 [selumetinib] + CCCCCCCCc1ccc(CCC(N)(CO)CO)cc1 [fingolimod] (first compound 0.015 µM, partner dose 2 µM) | 192 |
| C[C@]1(O)C[C@@H](c2nc(-c3ccc4ccc(-c5ccccc5)nc4c3)c3c(N)nccn32)C1 + Nc1ccn([C@@H]2O[C@H](CO)[C@@H](O)C2(F)F)c(=O)n1 [gemcitabine] (first compound 0.4 µM, partner dose 0.0004 µM) | 62.4 |
| CCCCCCCCc1ccc(CCC(N)(CO)CO)cc1 [fingolimod] + Nc1nc(F)nc2c1ncn2[C@@H]1O[C@H](CO)[C@@H](O)[C@@H]1O [fludarabine] (first compound 2 µM, partner dose 0.2 µM) | 49.1 |
| CCCCCCCCc1ccc(CCC(N)(CO)CO)cc1 [fingolimod] + C#Cc1cccc(Nc2ncnc3cc(OCCOC)c(OCCOC)cc23)c1 [erlotinib] (first compound 2 µM, partner dose 0.8 µM) | 117 |
| C[C@]1(O)C[C@@H](c2nc(-c3ccc4ccc(-c5ccccc5)nc4c3)c3c(N)nccn32)C1 + O=C(O)[C@@H]1[O][Sb](=[O])([O][Sb]2(=[O])[O][C@H]([C@H](O)CO)[C@H](O)[C@H](C(=O)O)[O]2)[O][C@H]([C@H](O)CO)[C@@H]1O [stibogluconate] (first compound 0.4 µM, partner dose 2 µM) | 46 |
| CC1(C)CCC(c2ccc(Cl)cc2)=C(CN2CCN(c3ccc(C(=O)NS(=O)(=O)c4ccc(N[C@H](CCN5CCOCC5)CSc5ccccc5)c(S(=O)(=O)C(F)(F)F)c4)cc3)CC2)C1 + COc1ccc(Cl)c(Nc2nc3ccccc3nc2NS(=O)(=O)c2cccc(NC(=O)C(C)(C)N)c2)c1 [XL147] (first compound 0.4 µM, partner dose 0.8 µM) | 248 |
| CC(=O)O[C@@]12CO[C@@H]1C[C@H](O)[C@@]1(C)C(=O)[C@H](O)C3=C(C)[C@@H](OC(=O)[C@H](O)[C@@H](NC(=O)OC(C)(C)C)c4ccccc4)C[C@@](O)([C@@H](OC(=O)c4ccccc4)[C@H]21)C3(C)C [Docetaxel] + Cc1nc(Nc2ncc(C(=O)Nc3c(C)cccc3Cl)s2)cc(N2CCN(CCO)CC2)n1 [dasatanib] (first compound 0.0001 µM, partner dose 0.004 µM) | 58.2 |
| CN(c1ncccc1CNc1nc(Nc2ccc3c(c2)CC(=O)N3)ncc1C(F)(F)F)S(C)(=O)=O + C=CCNC1=C2C[C@@H](C)C[C@H](OC)[C@H](O)[C@@H](C)/C=C(\C)[C@H](OC(N)=O)[C@@H](OC)/C=C\C=C(/C)C(=O)NC(=CC1=O)C2=O [Tanespimycin] (first compound 0.08 µM, partner dose 0.002 µM) | 103 |
| C[C@]1(O)C[C@@H](c2nc(-c3ccc4ccc(-c5ccccc5)nc4c3)c3c(N)nccn32)C1 + CCN(CC)CCNC(=O)c1c(C)[nH]c(/C=C2\C(=O)Nc3ccc(F)cc32)c1C [sunitinib] (first compound 0.4 µM, partner dose 0.4 µM) | 145 |
| C[C@]1(O)C[C@@H](c2nc(-c3ccc4ccc(-c5ccccc5)nc4c3)c3c(N)nccn32)C1 + C[C@]1(c2nc3c(C(N)=O)cccc3[nH]2)CCCN1 [Veliparib] (first compound 0.4 µM, partner dose 1.4 µM) | 75.8 |
| CCN(CC)CCNC(=O)c1c(C)[nH]c(/C=C2\C(=O)Nc3ccc(F)cc32)c1C [sunitinib] + C[C@]1(c2nc3c(C(N)=O)cccc3[nH]2)CCCN1 [Veliparib] (first compound 0.4 µM, partner dose 1.4 µM) | 98.8 |
| CC1(C)CCC(c2ccc(Cl)cc2)=C(CN2CCN(c3ccc(C(=O)NS(=O)(=O)c4ccc(N[C@H](CCN5CCOCC5)CSc5ccccc5)c(S(=O)(=O)C(F)(F)F)c4)cc3)CC2)C1 + CN1CCN(c2ccc3nc(-c4c(N)c5c(F)cccc5[nH]c4=O)[nH]c3c2)CC1 [Dovitinib] (first compound 0.4 µM, partner dose 0.1 µM) | 66.9 |
| Cn1sc(=O)n(Cc2ccccc2)c1=O + Cn1c(Nc2ccc(C(F)(F)F)cc2)nc2cc(Oc3ccnc(-c4ncc(C(F)(F)F)[nH]4)c3)ccc21 [CHIR265] (first compound 0.4 µM, partner dose 0.08 µM) | 91.5 |
| Cn1cnc2c(F)c(Nc3ccc(Br)cc3Cl)c(C(=O)NOCCO)cc21 [selumetinib] + C#Cc1cccc(Nc2ncnc3cc(OCCOC)c(OCCOC)cc23)c1 [erlotinib] (first compound 0.015 µM, partner dose 0.8 µM) | 351 |
| NC(=O)c1ccc(N(C(N)=O)c2c(F)cccc2F)nc1-c1ccc(F)cc1F + C[C@@H](Oc1cc(-c2cnn(C3CCNCC3)c2)cnc1N)c1c(Cl)ccc(F)c1Cl [Crizotinib] (first compound 0.4 µM, partner dose 0.2 µM) | 179 |
| CCN(CC)CCNC(=O)c1c(C)[nH]c(/C=C2\C(=O)Nc3ccc(F)cc32)c1C [sunitinib] + Nc1ccn([C@@H]2O[C@H](CO)[C@@H](O)C2(F)F)c(=O)n1 [gemcitabine] (first compound 0.4 µM, partner dose 0.0004 µM) | 174 |
| CC1(C)CCC(c2ccc(Cl)cc2)=C(CN2CCN(c3ccc(C(=O)NS(=O)(=O)c4ccc(N[C@H](CCN5CCOCC5)CSc5ccccc5)c(S(=O)(=O)C(F)(F)F)c4)cc3)CC2)C1 + CS(=O)(=O)CCNCc1ccc(-c2ccc3ncnc(Nc4ccc(OCc5cccc(F)c5)c(Cl)c4)c3c2)o1 [lapatinib] (first compound 0.4 µM, partner dose 0.8 µM) | 58.6 |
| CC1(C)CCC(c2ccc(Cl)cc2)=C(CN2CCN(c3ccc(C(=O)NS(=O)(=O)c4ccc(N[C@H](CCN5CCOCC5)CSc5ccccc5)c(S(=O)(=O)C(F)(F)F)c4)cc3)CC2)C1 + CCCS(=O)(=O)Nc1ccc(F)c(C(=O)c2c[nH]c3ncc(Cl)cc23)c1F [PLX4720] (first compound 0.4 µM, partner dose 0.08 µM) | 82.4 |
| CN(c1ncccc1CNc1nc(Nc2ccc3c(c2)CC(=O)N3)ncc1C(F)(F)F)S(C)(=O)=O + NC1(c2ccc(-c3nc4ccn5c(=O)[nH]nc5c4cc3-c3ccccc3)cc2)CCC1 [MK2206] (first compound 0.08 µM, partner dose 0.4 µM) | 135 |
| C[C@@H](N)c1ccc(C(=O)Nc2ccnc3[nH]ccc23)cc1 + Nc1ccn([C@@H]2O[C@H](CO)[C@@H](O)C2(F)F)c(=O)n1 [gemcitabine] (first compound 0.4 µM, partner dose 0.0004 µM) | 217 |
| CS(=O)(=O)c1ccc(C(=O)Nc2ccc(Cl)c(-c3ccccn3)c2)c(Cl)c1 [vismodegib] + CCCCCCCCc1ccc(CCC(N)(CO)CO)cc1 [fingolimod] (first compound 1 µM, partner dose 2 µM) | 64.3 |
| C[C@@H](N)c1ccc(C(=O)Nc2ccnc3[nH]ccc23)cc1 + Nc1ncn([C@H]2C[C@H](O)[C@@H](CO)O2)c(=O)n1 [decitabine] (first compound 0.4 µM, partner dose 0.1 µM) | 57.1 |
| C[C@]1(O)C[C@@H](c2nc(-c3ccc4ccc(-c5ccccc5)nc4c3)c3c(N)nccn32)C1 + CS(=O)(=O)c1ccc(C(=O)Nc2ccc(Cl)c(-c3ccccn3)c2)c(Cl)c1 [vismodegib] (first compound 0.4 µM, partner dose 1 µM) | 61.5 |
| C[C@@H](N)c1ccc(C(=O)Nc2ccnc3[nH]ccc23)cc1 + CCCS(=O)(=O)Nc1ccc(F)c(C(=O)c2c[nH]c3ncc(Cl)cc23)c1F [PLX4720] (first compound 0.4 µM, partner dose 0.08 µM) | 168 |
| CN(c1ncccc1CNc1nc(Nc2ccc3c(c2)CC(=O)N3)ncc1C(F)(F)F)S(C)(=O)=O + O=C(O)c1ccc2c(c1)nc(Nc1cccc(Cl)c1)c1ccncc12 [CX4945] (first compound 0.08 µM, partner dose 0.4 µM) | 311 |
| NC(=O)c1ccc(N(C(N)=O)c2c(F)cccc2F)nc1-c1ccc(F)cc1F + C=CCNC1=C2C[C@@H](C)C[C@H](OC)[C@H](O)[C@@H](C)/C=C(\C)[C@H](OC(N)=O)[C@@H](OC)/C=C\C=C(/C)C(=O)NC(=CC1=O)C2=O [Tanespimycin] (first compound 0.4 µM, partner dose 0.002 µM) | 76.8 |
| Cn1cnc2c(F)c(Nc3ccc(Br)cc3Cl)c(C(=O)NOCCO)cc21 [selumetinib] + Nc1ccn([C@@H]2O[C@H](CO)[C@@H](O)C2(F)F)c(=O)n1 [gemcitabine] (first compound 0.015 µM, partner dose 0.0004 µM) | 124 |

Random excerpt: two records from the list

| Structure (SMILES) | cleaved PARP positive nuclei fraction [%] |
| --- | --- |
| C[C@]1(O)C[C@@H](c2nc(-c3ccc4ccc(-c5ccccc5)nc4c3)c3c(N)nccn32)C1 + CS(=O)(=O)c1ccc(C(=O)Nc2ccc(Cl)c(-c3ccccn3)c2)c(Cl)c1 [vismodegib] (first compound 0.4 µM, partner dose 1 µM) | 61.5 |
| CC(=O)O[C@@]12CO[C@@H]1C[C@H](O)[C@@]1(C)C(=O)[C@H](O)C3=C(C)[C@@H](OC(=O)[C@H](O)[C@@H](NC(=O)OC(C)(C)C)c4ccccc4)C[C@@](O)([C@@H](OC(=O)c4ccccc4)[C@H]21)C3(C)C [Docetaxel] + Cc1nc(Nc2ncc(C(=O)Nc3c(C)cccc3Cl)s2)cc(N2CCN(CCO)CC2)n1 [dasatanib] (first compound 0.0001 µM, partner dose 0.004 µM) | 58.2 |
